Laboratory results taken from article PMC12061250.
Results are given in words; binding and its absence hold for the method and conditions named. In cells and extracts the contact can be indirect. A yes stands for co-enrichment or nearness to the bait. Other partners may have been found.

The chains behind the UniProt entries cited, without tags or fusion partners. Residues count along the entry.
UniProt P49841: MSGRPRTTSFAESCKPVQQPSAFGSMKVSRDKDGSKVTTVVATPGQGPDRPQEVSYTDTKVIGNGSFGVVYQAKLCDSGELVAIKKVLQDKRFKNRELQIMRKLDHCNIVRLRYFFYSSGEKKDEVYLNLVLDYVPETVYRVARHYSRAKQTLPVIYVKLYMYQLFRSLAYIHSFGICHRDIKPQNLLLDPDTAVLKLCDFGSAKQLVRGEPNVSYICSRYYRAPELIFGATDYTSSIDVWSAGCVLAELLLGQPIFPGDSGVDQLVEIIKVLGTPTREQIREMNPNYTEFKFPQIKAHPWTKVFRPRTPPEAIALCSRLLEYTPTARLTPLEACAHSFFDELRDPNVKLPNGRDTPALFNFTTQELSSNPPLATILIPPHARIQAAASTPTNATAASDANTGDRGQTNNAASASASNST
UniProt P11021, residues 19-654: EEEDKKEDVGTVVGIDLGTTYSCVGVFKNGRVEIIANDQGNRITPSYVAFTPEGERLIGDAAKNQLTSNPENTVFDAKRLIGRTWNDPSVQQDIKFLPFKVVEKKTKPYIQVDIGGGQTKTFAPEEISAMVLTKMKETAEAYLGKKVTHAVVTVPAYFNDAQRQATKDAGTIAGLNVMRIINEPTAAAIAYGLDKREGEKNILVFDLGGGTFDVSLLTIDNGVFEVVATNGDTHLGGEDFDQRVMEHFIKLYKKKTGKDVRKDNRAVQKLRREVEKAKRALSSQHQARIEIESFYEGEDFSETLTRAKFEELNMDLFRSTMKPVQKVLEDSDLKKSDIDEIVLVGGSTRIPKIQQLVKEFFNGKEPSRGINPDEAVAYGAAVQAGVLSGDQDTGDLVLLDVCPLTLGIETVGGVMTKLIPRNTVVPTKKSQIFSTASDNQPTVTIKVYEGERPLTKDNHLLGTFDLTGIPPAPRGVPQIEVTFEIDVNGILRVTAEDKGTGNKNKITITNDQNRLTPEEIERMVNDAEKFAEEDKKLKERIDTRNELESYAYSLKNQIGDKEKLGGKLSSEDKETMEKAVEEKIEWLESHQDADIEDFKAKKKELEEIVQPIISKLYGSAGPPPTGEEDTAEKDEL

Molecular target: Glycogen synthase kinase 3β (human (endogenous in macrophages from ITP patients)) (UniProt P49841)
Assay: affinity purification with mass spectrometry; lysate of M0 macrophages from ITP patients incubated with anti GSK-3β antibody and protein A/G magnetic beads at 4 °C overnight; precipitate digested and analysed by LC-MS/MS; two independent samples, overlapped proteins used

binding: binds
Substance: HSPA5 (also known as GRP78 and BiP) (from UniProt P11021 19-654)
